These are yes or no findings as the source states them, for the method shown. Binding seen in cells or lysates may run through a third protein. Some binding calls cover weakened binding; strength is not graded here.

Chains of the proteins cited; added tags and fusions are not shown. Residues count along the entry.
UniProt Q9CQN4, residues 24-206: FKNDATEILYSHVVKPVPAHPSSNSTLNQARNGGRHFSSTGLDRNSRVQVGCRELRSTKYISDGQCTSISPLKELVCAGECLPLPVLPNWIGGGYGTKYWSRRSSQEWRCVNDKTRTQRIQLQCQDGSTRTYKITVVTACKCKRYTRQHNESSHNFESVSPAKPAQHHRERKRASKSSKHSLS
UniProt Q6X4U4, residues 24-206: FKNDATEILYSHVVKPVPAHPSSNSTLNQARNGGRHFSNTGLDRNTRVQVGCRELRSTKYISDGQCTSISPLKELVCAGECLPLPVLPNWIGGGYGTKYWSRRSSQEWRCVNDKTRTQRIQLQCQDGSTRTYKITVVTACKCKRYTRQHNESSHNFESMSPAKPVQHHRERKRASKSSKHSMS

Assay [1] concerns the target N-terminal PA-tagged mouse USAG-1 (WISE) recombinant protein (mouse) (UniProt Q9CQN4). Nature of the assay: Protein A sepharose pull-down from Expi293F supernatant, SDS-PAGE with CBB staining.
Assay [2] concerns the target N-terminal PA-tagged human USAG-1 (WISE) recombinant protein (human) (UniProt Q6X4U4). Described as above.

B1: mouse anti-USAG-1 neutralizing antibody B48C (antibody, V domains shown)
VH: EVQLQQSGAELVRPGASVKLSCTASGFNIKDDYMHWVKQRPEQGLEWIGWIDPENGDTEYASKFQGKATITADTSSNTAYLQLSSLTSEDTAVYYCITPYYYGSSFSYWYFDVWGTGTTVTVSS
VL: DVLMTQTPLSLPVSLGDQASISCRSSQSIVHSNGNTYLEWYLQKPGQSPKLLIYKVSNRFSGVPDRFSGSGSGTDFTLKISRVEAEDLGVYYCFQGSHVPWTFGGGTKLEIKR
notes: Mouse monoclonal from a hybridoma (USAG-1 KO mouse immunised with rat USAG-1)
Turning to B1, the binding result in assay [1] and in assay [2] was “binds” in each case.

These data come from patent publication US20250136674A1 (KYOTO UNIVERSITY, published 2025).
